Measurements reported in PubChem BioAssay AID1259308 (NCATS, 2017).
The deposit covers about 59,000 reagents; below is a part drawn at random. In the full data, about 1,510 (2.6%) were called active. 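Calls use total luciferase alone and ignore viability, so some active siRNAs may act by altering cell number.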

Assay: 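Knock-downs that increase output of a recombinant reporter protein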 (primary screen)
Cells: human HEK293 embryonic kidney cells stably expressing firefly luciferase (HEK-CMV-Luc2-Hygro)
Knock-down reagent: single siRNA against human genes, 0.8 pmol siRNA per well
Time to read-out: 72 h
Measurement: 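Reporter luminescence and viable-cell signal on separate replicate plates, given as percent of non-targeting control and median/MAD z-scores, plus per-cell luciferase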
Direction: total luciferase, z-score and total luciferase, % of control: higher = more reporter protein produced; luciferase per cell, z-score: higher = more reporter output per viable cell; viable cells, % of control: higher = more viable cells
Active means: 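An siRNA counts as active if its total luciferase robust z-score exceeds 3; genes with two or more such siRNAs out of three were retested with fresh siRNAs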
Calls: active = raised luciferase; inactive = no rise

| target | PubChem SID | total luciferase, z-score | total luciferase, % of control | luciferase per cell, z-score | viable cells, % of control | Outcome |
| --- | --- | --- | --- | --- | --- | --- |
| OR1J2 (olfactory receptor family 1 subfamily J member 2) | SID160738165 | -0.00382 | 81.8 | -0.423 | 102 | inactive |
| OR1J2 (olfactory receptor family 1 subfamily J member 2) | SID160738166 | 0.786 | 97.5 | 0.392 | 98.3 | inactive |
| OR1J2 (olfactory receptor family 1 subfamily J member 2) | SID160738168 | -0.399 | 74 | -1.24 | 115 | inactive |
| DCBLD2 (discoidin, CUB and LCCL domain containing 2) | SID160757075 | -0.131 | 79.3 | -0.611 | 104 | inactive |
| DCBLD2 (discoidin, CUB and LCCL domain containing 2) | SID160757076 | -1.3 | 56 | -0.981 | 81 | inactive |
| DCBLD2 (discoidin, CUB and LCCL domain containing 2) | SID160757077 | -0.906 | 63.9 | -0.115 | 73.6 | inactive |
| ATP2A1 | SID160721536 | 1.13 | 104 | 0.546 | 101 | inactive |
| ATP2A1 | SID160721546 | -0.763 | 66.7 | -1.34 | 106 | inactive |
| ATP2A1 | SID160721557 | 1.93 | 120 | 0.803 | 109 | inactive |
| SFXN3 (sideroflexin 3) | SID160751030 | 0.792 | 97.6 | 1.23 | 78.9 | inactive |
| SFXN3 (sideroflexin 3) | SID160751032 | 0.76 | 97 | 0.108 | 105 | inactive |
| SFXN3 (sideroflexin 3) | SID160751033 | -0.685 | 68.3 | 0.484 | 67.1 | inactive |
| SLC6A5 | SID160721607 | 0.156 | 85 | 0.358 | 86.4 | inactive |
| SLC6A5 | SID160721608 | 1.95 | 121 | 0.631 | 114 | inactive |
| SLC6A5 | SID160721609 | -2.99 | 22.5 | -2.88 | 53.6 | inactive |
| TSPY1 (testis specific protein Y-linked 1) | SID160718399 | -0.23 | 77.3 | 0.0584 | 85.1 | inactive |
| TSPY1 (testis specific protein Y-linked 1) | SID160718400 | 2.24 | 126 | 2.74 | 68.7 | inactive |
| TSPY1 (testis specific protein Y-linked 1) | SID160734218 | 0.248 | 86.8 | 0.93 | 75.9 | inactive |
| PNPLA7 (patatin like domain 7, lysophospholipase) | SID160765481 | -1.39 | 54.2 | -1.3 | 85.2 | inactive |
| PNPLA7 (patatin like domain 7, lysophospholipase) | SID160765482 | -0.1 | 79.9 | -0.0745 | 91 | inactive |
| PNPLA7 (patatin like domain 7, lysophospholipase) | SID160765483 | -0.387 | 74.2 | 0.163 | 79.4 | inactive |
| LINC00639 (long independently transcribed non-coding RNA 639) | SID160762955 | -0.594 | 70.1 | 0.182 | 74.6 | inactive |
| LINC00639 (long independently transcribed non-coding RNA 639) | SID160762956 | -1.95 | 43 | -1.59 | 73.2 | inactive |
| LINC00639 (long independently transcribed non-coding RNA 639) | SID160762957 | 0.281 | 87.5 | 0.125 | 94.6 | inactive |
| RPS8 (ribosomal protein S8) | SID160716167 | -2.44 | 33.4 | -2.64 | 74.8 | inactive |
| RPS8 (ribosomal protein S8) | SID160716168 | -1.57 | 50.6 | 1.08 | 42.5 | inactive |
| RPS8 (ribosomal protein S8) | SID160716169 | -2.3 | 36.2 | -2.24 | 72.9 | inactive |
| EIF1P3 (eukaryotic translation initiation factor 1 pseudogene 3) | SID160773568 | -1.79 | 46.3 | -0.037 | 52.2 | inactive |
| EIF1P3 (eukaryotic translation initiation factor 1 pseudogene 3) | SID160773569 | -0.721 | 67.5 | -0.0503 | 76.5 | inactive |
| EIF1P3 (eukaryotic translation initiation factor 1 pseudogene 3) | SID160773572 | 0.347 | 88.8 | 0.827 | 79.8 | inactive |
| SLC37A2 | SID160761367 | -1.94 | 43.3 | -0.342 | 52.9 | inactive |
| SLC37A2 | SID160761368 | 1.92 | 120 | 1.98 | 79.6 | inactive |
| SLC37A2 | SID160761369 | -0.986 | 62.3 | -1.04 | 91.6 | inactive |
| TENT2 (terminal nucleotidyltransferase 2) | SID160760250 | -0.522 | 71.5 | -0.234 | 85 | inactive |
| TENT2 (terminal nucleotidyltransferase 2) | SID160760251 | 0.112 | 84.1 | 0.153 | 90.3 | inactive |
| TENT2 (terminal nucleotidyltransferase 2) | SID160760252 | 1.67 | 115 | 0.974 | 99.6 | inactive |
| NUP98 (nucleoporin 98 and 96 precursor) | SID160778306 | -0.868 | 64.6 | 0.184 | 68.8 | inactive |
| NUP98 (nucleoporin 98 and 96 precursor) | SID160778307 | -0.193 | 78.1 | 0.412 | 78.3 | inactive |
| NUP98 (nucleoporin 98 and 96 precursor) | SID160778308 | -0.356 | 74.8 | 0.251 | 78.2 | inactive |
| ROBO2 (roundabout guidance receptor 2) | SID160715974 | 0.607 | 94 | 0.112 | 102 | inactive |
| ROBO2 (roundabout guidance receptor 2) | SID160715975 | 0.913 | 100 | 1.38 | 77.8 | inactive |
| ROBO2 (roundabout guidance receptor 2) | SID160715976 | -2.13 | 39.5 | -2.88 | 94.1 | inactive |
| TRAM1L1 (translocation associated membrane protein 1 like 1) | SID160757221 | 1.02 | 102 | 0.709 | 94.8 | inactive |
| TRAM1L1 (translocation associated membrane protein 1 like 1) | SID160757222 | 2.08 | 123 | 1.63 | 89.7 | inactive |
| TRAM1L1 (translocation associated membrane protein 1 like 1) | SID160757223 | 0.559 | 93 | 0.348 | 94.8 | inactive |
| TRIM59 (tripartite motif containing 59) | SID160763893 | 3.46 | 151 | 2.03 | 98.6 | active |
| TRIM59 (tripartite motif containing 59) | SID160763894 | 1.27 | 107 | 0.575 | 103 | inactive |
| TRIM59 (tripartite motif containing 59) | SID160763895 | -0.765 | 66.7 | -1.02 | 97.5 | inactive |
| MRPL24 (mitochondrial ribosomal protein L24) | SID160734933 | 0.648 | 94.8 | 0.0919 | 103 | inactive |
| MRPL24 (mitochondrial ribosomal protein L24) | SID160748953 | 0.506 | 91.9 | 1.1 | 76.8 | inactive |
| MRPL24 (mitochondrial ribosomal protein L24) | SID160748954 | 6.15 | 204 | 2.96 | 105 | active |
| INS (insulin) | SID160723885 | -1.31 | 55.8 | -1.52 | 92.8 | inactive |
| INS (insulin) | SID160731142 | -0.951 | 63 | -0.388 | 77.9 | inactive |
| INS (insulin) | SID160775861 | 0.295 | 87.8 | 0.176 | 93.6 | inactive |
| SDC1 (syndecan 1) | SID160716507 | 0.831 | 98.4 | 1.1 | 82.4 | inactive |
| SDC1 (syndecan 1) | SID160716508 | 0.59 | 93.6 | 0.691 | 87.2 | inactive |
| SDC1 (syndecan 1) | SID160716509 | -1.96 | 43 | -2.2 | 85.8 | inactive |
